{"source": "PubChem BioAssay AID504804 – Drosophila RNAi Screening Center | 2011", "assay": "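dsRNAs that improve Kc cell survival under doxorubicin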 (primary screen)", "system": "Drosophila Kc cells", "knock-down reagent": "long dsRNA against Drosophila genes, 0.5 µg dsRNA per well", "duration": "96 h (48 h knock-down, then 48 h drug)", "conditions": "doxorubicin 5 µg/ml for 48 h, added 48 h after dsRNA", "read-out": "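Viability measured as cellular ATP by luminescence after 48 h knock-down then 48 h doxorubicin at 5 µg/ml; unnormalised plate counts for each replicate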", "reading the numbers": "raw ATP luminescence: higher = more viable cells, protection from doxorubicin", "hit rule": "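Active when both duplicate wells lie at least 2 SD above the plate mean and protection is confirmed by rescreening and independent dsRNAs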", "note": "The screen tested about 19,000 reagents; this is an unselected part of those that have a named target and a result. Over the whole deposit, 47 (0.25%) were called active. 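Signals are raw, not normalised; exact z-scores behind calls not deposited; actives needed confirmation, so some wells reaching 2 SD are inactive.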 A number with no mark means an inactive call. Names joined by + are all predicted targets of the reagent."}
The opening 2 records as a preview:
{"gene":"CG40485","amplicon":"DRSC20624","raw ATP luminescence, replicate 1":4.13e5,"raw ATP luminescence, replicate 2":3.09e5}
{"gene":"geko","amplicon":"DRSC10044","raw ATP luminescence, replicate 1":89130,"raw ATP luminescence, replicate 2":72480}

Main list, repeating the preview:
{"gene":"CG40485","amplicon":"DRSC20624","raw ATP luminescence, replicate 1":4.13e5,"raw ATP luminescence, replicate 2":3.09e5}
{"gene":"geko","amplicon":"DRSC10044","raw ATP luminescence, replicate 1":89130,"raw ATP luminescence, replicate 2":72480}
{"gene":"geko","amplicon":"DRSC10045","raw ATP luminescence, replicate 1":51313,"raw ATP luminescence, replicate 2":47593}
{"gene":"Cpr65Ax2 + Cpr65Ax1","amplicon":"DRSC10341","raw ATP luminescence, replicate 1":1.03e5,"raw ATP luminescence, replicate 2":85193}
{"gene":"Cpr65Ax2 + Cpr65Ax1","amplicon":"DRSC10344","raw ATP luminescence, replicate 1":90190,"raw ATP luminescence, replicate 2":95170}
{"gene":"CG2993","amplicon":"DRSC14284","raw ATP luminescence, replicate 1":57220,"raw ATP luminescence, replicate 2":59437}
{"gene":"CG2993","amplicon":"DRSC15457","raw ATP luminescence, replicate 1":38767,"raw ATP luminescence, replicate 2":35500}
{"gene":"Rbpn-5 (Rabaptin-5)","amplicon":"DRSC04440","raw ATP luminescence, replicate 1":62613,"raw ATP luminescence, replicate 2":60997}
{"gene":"CG13066","amplicon":"DRSC09949","raw ATP luminescence, replicate 1":41130,"raw ATP luminescence, replicate 2":31293}
{"gene":"CG15432","amplicon":"DRSC00447","raw ATP luminescence, replicate 1":22537,"raw ATP luminescence, replicate 2":30513}
{"gene":"ThrRS (Threonyl-tRNA synthetase)","amplicon":"DRSC02843","raw ATP luminescence, replicate 1":75097,"raw ATP luminescence, replicate 2":56543}
{"gene":"CG9701","amplicon":"DRSC11093","raw ATP luminescence, replicate 1":35927,"raw ATP luminescence, replicate 2":46150}
{"gene":"ImpL1 (Ecdysone-inducible gene L1)","amplicon":"DRSC11197","raw ATP luminescence, replicate 1":38710,"raw ATP luminescence, replicate 2":41217}
{"gene":"Bap111 (Brahma associated protein 111kD)","amplicon":"DRSC18419","raw ATP luminescence, replicate 1":1.92e5,"raw ATP luminescence, replicate 2":2.56e5}
{"gene":"CG46301","amplicon":"DRSC01916","raw ATP luminescence, replicate 1":66200,"raw ATP luminescence, replicate 2":64937}
{"gene":"fs(1)h (female sterile (1) homeotic)","amplicon":"DRSC18778","raw ATP luminescence, replicate 1":2.14e5,"raw ATP luminescence, replicate 2":2.71e5}
{"gene":"betaNACtes3 (Nascent-associated complex beta-subunit-like, testis 3)","amplicon":"DRSC20183","raw ATP luminescence, replicate 1":4.03e5,"raw ATP luminescence, replicate 2":3.43e5}
{"gene":"CG5021","amplicon":"DRSC10469","raw ATP luminescence, replicate 1":80303,"raw ATP luminescence, replicate 2":82213}
{"gene":"CG40498","amplicon":"DRSC07786","raw ATP luminescence, replicate 1":1.90e5,"raw ATP luminescence, replicate 2":1.38e5}
{"gene":"CG8668","amplicon":"DRSC03101","raw ATP luminescence, replicate 1":1.30e5,"raw ATP luminescence, replicate 2":48960}
{"gene":"CG7409","amplicon":"DRSC10842","raw ATP luminescence, replicate 1":82203,"raw ATP luminescence, replicate 2":77233}
{"gene":"CG1146","amplicon":"DRSC08189","raw ATP luminescence, replicate 1":68870,"raw ATP luminescence, replicate 2":67383}
{"gene":"mnb (minibrain)","amplicon":"DRSC20058","raw ATP luminescence, replicate 1":2.04e5,"raw ATP luminescence, replicate 2":1.70e5}
{"gene":"mnb (minibrain)","amplicon":"DRSC20353","raw ATP luminescence, replicate 1":4.16e5,"raw ATP luminescence, replicate 2":3.52e5}
{"gene":"Ppa (Partner of paired)","amplicon":"DRSC04598","raw ATP luminescence, replicate 1":57687,"raw ATP luminescence, replicate 2":50047}
{"gene":"HPS1 (Hermansky-Pudlak Syndrome 1)","amplicon":"DRSC06195","raw ATP luminescence, replicate 1":63850,"raw ATP luminescence, replicate 2":80270}
{"gene":"Tsp42Eo (Tetraspanin 42Eo)","amplicon":"DRSC06184","raw ATP luminescence, replicate 1":49577,"raw ATP luminescence, replicate 2":75247}
{"gene":"DIP-zeta (Dpr-interacting protein zeta)","amplicon":"DRSC02203","raw ATP luminescence, replicate 1":49770,"raw ATP luminescence, replicate 2":85077}
{"gene":"DIP-zeta (Dpr-interacting protein zeta)","amplicon":"DRSC02204","raw ATP luminescence, replicate 1":44053,"raw ATP luminescence, replicate 2":87060}
{"gene":"DIP-zeta (Dpr-interacting protein zeta)","amplicon":"DRSC02205","raw ATP luminescence, replicate 1":52950,"raw ATP luminescence, replicate 2":73540}
